Values quoted from earlier work as cited in article PMC4077236 (Neurochemistry International, 2014).

Settings: oral administration of 50 mg levamisole; on average; ref Gwilt et al., 2000; cited from earlier work

## c1ccc([C@H]2CN3CCSC3=N2)cc1 [levamisole]
  peak plasma concentrations (cmax): 368 µg/L
